Among the data in article PMC7093409 are binding values, retold here.

By UniProt entry, the sequences of proteins in these tests, tags left out. Where a name states a change or a piece, a line headed by the entry shows the natural chain unless it says otherwise.
UniProt Q9DCD6: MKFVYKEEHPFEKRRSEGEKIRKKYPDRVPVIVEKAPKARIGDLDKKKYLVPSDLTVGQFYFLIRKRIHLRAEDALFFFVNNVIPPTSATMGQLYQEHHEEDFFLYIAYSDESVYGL
UniProt Q99MI1: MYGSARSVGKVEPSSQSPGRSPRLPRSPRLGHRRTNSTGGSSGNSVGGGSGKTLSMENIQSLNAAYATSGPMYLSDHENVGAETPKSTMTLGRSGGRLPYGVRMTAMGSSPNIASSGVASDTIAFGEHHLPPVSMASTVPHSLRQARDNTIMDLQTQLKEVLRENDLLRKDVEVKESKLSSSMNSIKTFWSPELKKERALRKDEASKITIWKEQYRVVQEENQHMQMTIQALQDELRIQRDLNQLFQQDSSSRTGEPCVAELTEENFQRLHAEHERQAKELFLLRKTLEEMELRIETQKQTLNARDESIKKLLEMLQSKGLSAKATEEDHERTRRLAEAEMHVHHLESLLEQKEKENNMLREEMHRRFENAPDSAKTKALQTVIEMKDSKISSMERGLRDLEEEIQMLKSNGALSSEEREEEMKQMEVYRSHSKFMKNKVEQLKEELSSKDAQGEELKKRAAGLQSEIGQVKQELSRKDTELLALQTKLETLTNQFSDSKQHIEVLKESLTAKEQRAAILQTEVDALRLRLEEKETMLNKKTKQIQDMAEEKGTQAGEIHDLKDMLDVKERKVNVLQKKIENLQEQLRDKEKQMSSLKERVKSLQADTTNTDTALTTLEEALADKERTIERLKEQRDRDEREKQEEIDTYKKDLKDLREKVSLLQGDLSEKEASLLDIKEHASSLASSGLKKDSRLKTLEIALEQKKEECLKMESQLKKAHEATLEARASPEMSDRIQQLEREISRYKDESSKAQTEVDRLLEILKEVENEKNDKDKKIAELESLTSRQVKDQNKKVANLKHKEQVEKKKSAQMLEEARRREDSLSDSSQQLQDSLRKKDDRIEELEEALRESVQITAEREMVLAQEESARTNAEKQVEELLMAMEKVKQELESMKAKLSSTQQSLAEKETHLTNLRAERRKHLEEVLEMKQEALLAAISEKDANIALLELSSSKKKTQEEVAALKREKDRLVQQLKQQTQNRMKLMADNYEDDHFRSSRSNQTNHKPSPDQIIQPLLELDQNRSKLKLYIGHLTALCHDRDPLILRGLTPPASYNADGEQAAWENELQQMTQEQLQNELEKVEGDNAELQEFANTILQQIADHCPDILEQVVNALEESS

These are yes or no findings as the source states them, for the method shown. In cells and extracts the contact can be indirect. Some results given as binding are weak or reduced against the parent protein; the word gives no strength.

Test [1] has as its target eGFP-GABARAP (mouse) (UniProt Q9DCD6). Kind of test: co-IP; HEK293T cells co-transfected with the eGFP fusion and tdTomato-ELKS1, RIPA lysate, magnetic GFP-microbeads, blot against mCherry.
Test [2] deals with eGFP-GABARAP G116A (mouse) (UniProt Q9DCD6). Described as above.
Test [3] addresses eGFP-LC3A (mouse) (UniProt Q91VR7). The test is described as above.
The target in test [4] is eGFP-LC3A G120A (mouse) (UniProt Q91VR7). Described as above.
Test [5] addresses tdTomato-ELKS1 (UniProt Q99MI1). Nature of the test: co-IP; HEK cell lysates, ELKS1 immunoprecipitation, blot against GFP.

For “tdTomato-ELKS1 (from UniProt Q99MI1 1-1120)”, the binding entry in test [1] was “no binding”; in test [2], “no binding”; in test [3] it was “binds”; in test [4], “binds”.

As for eGFP-LC3A (from UniProt Q91VR7 1-121), the binding entry in test [5] was “binds”.
